Measurements as given in patent US7022818 (Janssen / Centocor, dated 2006).
Results are given in words; binding and its absence hold for the method and conditions named. Some results given as binding are weak or reduced against the parent protein; the word gives no strength. Tags and fused reporters may be left off the sequences shown.

Target: T1, NH2-terminally 6His-tagged recombinant rat persephin (rat) (UniProt O70301)
T1 sequence: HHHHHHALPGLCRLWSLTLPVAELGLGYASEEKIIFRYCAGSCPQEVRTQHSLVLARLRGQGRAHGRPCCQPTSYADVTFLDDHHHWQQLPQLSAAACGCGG
Experiment: SPR (BIACORE 3000), PSP immobilised

- binding: binds
B1: rat GFRα-4 variant A-IgGFc fusion protein (Fc fusion)
chain: ASSTEGNRCVEAAEACTADEQCQQLRSEYVAQCLGRAGWRGPGSCVRSRCRRALRRFFARGPPALTHALLFCGCEGPACAERRRQTFAPACAFSGPQLAPPSCLKPLDRCERSRRCRPRLFAFQASCAPAPGSRDGCPEEGGPRCLRAYAGLVGTVVTPNYLDNVSARVAPWCGCEASGNRREECEAFRKLFTRNPCLDGAIQAFDSSQPSVLQDQWNPYQNAG
notes: also called rat GFRα-4-IgGFc; rat GFRα4-IgGFc; not shown: The 243-residue COOH-terminal human IgG1-Fc fusion domain from the vector Signal pIg plus (R&D Systems)
